PubChem BioAssay AID1224828, NIAID | 2016

- Screen: 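Find genes required for NF-kappaB p65 moving into the nucleus after LPS in mouse macrophages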 (primary screen)
- Cell system: mouse RAW264.7 G9 macrophage reporter cells (GFP-p65, Tnf promoter-mCherry)
- Reagents: siRNA pool against mouse genes, 100 nM
- Timing: 2 days siRNA transfection, then 40 min LPS before fixation
- Challenge: LPS (Salmonella minnesota R595) at 10 ng/ml
- Detection: 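Microscopy ratio of nuclear to perinuclear-ring GFP-p65 signal, scaled to the plate median; gene score is the average of two replicate robust z-scores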
- Direction: p65 translocation robust z-score: higher = more nuclear NF-kappaB p65 after LPS than the plate median; nuclear/cytoplasmic p65 ratio: higher = more nuclear NF-kappaB p65
- Call rule: 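Active if robust z is above 3.3 (negative regulators) or below -1.56, the Tlr4 control median (positive regulators); activity score 50 or more; control wells not called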
- Calls: active = hit (p65 shift raised or lowered); inactive = no clear change
The deposit covers about 17,000 reagents; this is a part drawn at random. In the full data, 762 (4.5%) were called active. 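Active calls include both raised and lowered p65 entry, mostly lowered; wells with fewer than 50 cells lack a z-score.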 The raw values are shown without normalisation. The numbers tell different reagents against one gene apart.

Cdc73 → p65 translocation robust z-score: 0.86; nuclear/cytoplasmic p65 ratio, rep 1: 1.81; nuclear/cytoplasmic p65 ratio, rep 2: 1.68; low cell count flag: enough cells to score; outcome: inactive
Mapk1ip1l → p65 translocation robust z-score: 0.28; nuclear/cytoplasmic p65 ratio, rep 1: 1.33; nuclear/cytoplasmic p65 ratio, rep 2: 1.56; low cell count flag: enough cells to score; outcome: inactive
Zfp54 (zinc finger protein 54) → p65 translocation robust z-score: -1.3; nuclear/cytoplasmic p65 ratio, rep 1: 1.15; nuclear/cytoplasmic p65 ratio, rep 2: 1.1; low cell count flag: enough cells to score; outcome: inactive
Fads3 (fatty acid desaturase 3) → p65 translocation robust z-score: -2.08; nuclear/cytoplasmic p65 ratio, rep 1: 1.24; nuclear/cytoplasmic p65 ratio, rep 2: 1.22; low cell count flag: enough cells to score; outcome: active
Pakap (paralemmin A kinase anchor protein) #1 → p65 translocation robust z-score: 0.54; nuclear/cytoplasmic p65 ratio, rep 1: 1.71; nuclear/cytoplasmic p65 ratio, rep 2: 1.69; low cell count flag: enough cells to score; outcome: inactive
Pakap (paralemmin A kinase anchor protein) #2 → p65 translocation robust z-score: 1.9; nuclear/cytoplasmic p65 ratio, rep 1: 1.7; nuclear/cytoplasmic p65 ratio, rep 2: 1.45; low cell count flag: enough cells to score; outcome: inactive
Tafa4 (TAFA chemokine like family member 4) → p65 translocation robust z-score: 1.87; nuclear/cytoplasmic p65 ratio, rep 1: 1.72; nuclear/cytoplasmic p65 ratio, rep 2: 1.74; low cell count flag: enough cells to score; outcome: inactive
Mid1ip1 → nuclear/cytoplasmic p65 ratio, rep 1: 1.36; nuclear/cytoplasmic p65 ratio, rep 2: 1.31; low cell count flag: fewer than 50 cells per well; well left out of scoring; outcome: inactive
Osbpl10 (oxysterol binding protein-like 10) #1 → nuclear/cytoplasmic p65 ratio, rep 1: 1.31; nuclear/cytoplasmic p65 ratio, rep 2: 1.42; low cell count flag: fewer than 50 cells per well; well left out of scoring; outcome: inactive
Osbpl10 (oxysterol binding protein-like 10) #2 → p65 translocation robust z-score: 0.98; nuclear/cytoplasmic p65 ratio, rep 1: 1.74; nuclear/cytoplasmic p65 ratio, rep 2: 1.94; low cell count flag: enough cells to score; outcome: inactive
Gck (glucokinase) → p65 translocation robust z-score: -0.7; nuclear/cytoplasmic p65 ratio, rep 1: 1.64; nuclear/cytoplasmic p65 ratio, rep 2: 1.24; low cell count flag: enough cells to score; outcome: inactive
Rbpms2 (RNA binding protein with multiple splicing 2) → nuclear/cytoplasmic p65 ratio, rep 1: 1.51; nuclear/cytoplasmic p65 ratio, rep 2: 1.38; low cell count flag: fewer than 50 cells per well; well left out of scoring; outcome: inactive
Lax1 (lymphocyte transmembrane adaptor 1) → p65 translocation robust z-score: -0.47; nuclear/cytoplasmic p65 ratio, rep 1: 1.51; nuclear/cytoplasmic p65 ratio, rep 2: 1.21; low cell count flag: enough cells to score; outcome: inactive
Prdm13 (PR domain containing 13) → p65 translocation robust z-score: 2.61; nuclear/cytoplasmic p65 ratio, rep 1: 1.72; nuclear/cytoplasmic p65 ratio, rep 2: 1.88; low cell count flag: enough cells to score; outcome: inactive
Jund (jun D proto-oncogene, AP-1 transcription factor subunit) → p65 translocation robust z-score: -1.07; nuclear/cytoplasmic p65 ratio, rep 1: 1.33; nuclear/cytoplasmic p65 ratio, rep 2: 1.36; low cell count flag: enough cells to score; outcome: inactive
Rps14 (ribosomal protein S14) → p65 translocation robust z-score: -1.39; nuclear/cytoplasmic p65 ratio, rep 1: 1.19; nuclear/cytoplasmic p65 ratio, rep 2: 1.1; low cell count flag: enough cells to score; outcome: inactive
Meox2 (mesenchyme homeobox 2) → p65 translocation robust z-score: 0.85; nuclear/cytoplasmic p65 ratio, rep 1: 1.52; nuclear/cytoplasmic p65 ratio, rep 2: 1.48; low cell count flag: enough cells to score; outcome: inactive
Ssb (small RNA binding exonuclease protection factor La) → p65 translocation robust z-score: 0.05; nuclear/cytoplasmic p65 ratio, rep 1: 1.45; nuclear/cytoplasmic p65 ratio, rep 2: 1.24; low cell count flag: enough cells to score; outcome: inactive
Osr1 (odd-skipped related transcription factor 1) → p65 translocation robust z-score: 0.42; nuclear/cytoplasmic p65 ratio, rep 1: 1.98; nuclear/cytoplasmic p65 ratio, rep 2: 1.42; low cell count flag: enough cells to score; outcome: inactive
Cdr1os (cerebellar degeneration related antigen 1, opposite strand) → nuclear/cytoplasmic p65 ratio, rep 1: 1.11; nuclear/cytoplasmic p65 ratio, rep 2: 1.25; low cell count flag: fewer than 50 cells per well; well left out of scoring; outcome: inactive
Kpnb1 (karyopherin subunit beta 1) → nuclear/cytoplasmic p65 ratio, rep 1: 1.37; nuclear/cytoplasmic p65 ratio, rep 2: 1.62; low cell count flag: fewer than 50 cells per well; well left out of scoring; outcome: inactive
